Measured data: PubChem BioAssay AID504795 (Drosophila RNAi Screening Center, 2011)

Screen: 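Genes required for normal axon extension and glial cell shape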 (primary screen)
Cell system: primary Drosophila neurons and glia
Reagents: long dsRNA against Drosophila genes, 250 ng dsRNA per well
Time to read-out: one week
Measured: 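GFP-labelled neurons and glia imaged live by automated microscope one week after 250 ng dsRNA per well; morphology scored by eye as descriptive phenotype terms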
This is not the whole library: the list holds selected reagents. 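Every listed dsRNA shows some phenotype; how reagents were selected for listing is not stated.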 A plus sign joins genes that one reagent is predicted to hit.

CG17637 [DRSC11740] showed phenotype seen, replicate 1 = reduced axon outgrowth.
Silencing of Coq4 + Gorab + frc [DRSC10383] resulted in: phenotype seen, replicate 1 = cell fragments present.
After knock-down of yip2 (yippee interacting protein 2) [DRSC03640], the screen gave phenotype seen, replicate 1 = beaded; swollen axons.
Depletion of CG31872 [DRSC02568] resulted in: phenotype seen, replicate 1 = cell fragments present; phenotype seen, replicate 2 = abnormal cell clusters.
CG31872 [DRSC02572] scored phenotype seen, replicate 1 = too many neurite branches.
For CG42288 [DRSC06381], the values are phenotype seen, replicate 1 = abnormal cell clusters.
Against Cpr65Ax2 + Cpr65Ax1 [DRSC10344] the deposit lists phenotype seen, replicate 1 = too many neurite branches.
Against Cib2 (Calcium and integrin binding family member 2) [DRSC04535] the deposit lists phenotype seen, replicate 1 = fewer cells.
AANATL6 (Arylalkylamine N-acetyltransferase-like 6) [DRSC06773] showed phenotype seen, replicate 1 = axon bundles split apart.
CG3699 [DRSC18171] scored phenotype seen, replicate 1 = axon bundles split apart.
After knock-down of pcx (pecanex) [DRSC18188], the screen gave phenotype seen, replicate 1 = abnormal cell clusters.
Silencing of eIF4E4 (eukaryotic translation initiation factor 4E4) [DRSC09701] resulted in: phenotype seen, replicate 1 = fewer cells.
Knock-down of CG31213 [DRSC15647] resulted in: phenotype seen, replicate 1 = abnormal cell clusters.
Knock-down of LpR2 (Lipophorin receptor 2) [DRSC13726] resulted in: phenotype seen, replicate 1 = axon bundles split apart.
Against CG12817 [DRSC14555], the entry reads phenotype seen, replicate 1 = sheet-like cell extensions.
Silencing of pnt (pointed) [DRSC17028] gave: phenotype seen, replicate 1 = reduced axon outgrowth.
CG14147 [DRSC10149] showed phenotype seen, replicate 1 = reduced axon outgrowth.
scaf6 (SR-related CTD associated factor 6) [DRSC10678] showed phenotype seen, replicate 1 = axon bundles split apart.
Silencing of CG14615 [DRSC20627] came out at: phenotype seen, replicate 1 = axon bundles split apart.
Knock-down of Pgant9 (Polypeptide N-Acetylgalactosaminyltransferase 9) [DRSC05621] gave: phenotype seen, replicate 1 = weaker green signal.
Depletion of Pgant9 (Polypeptide N-Acetylgalactosaminyltransferase 9) [DRSC06584] gave: phenotype seen, replicate 1 = beaded; swollen axons.
Pgant9 (Polypeptide N-Acetylgalactosaminyltransferase 9) [DRSC07187] showed phenotype seen, replicate 1 = axon bundles split apart.
For Aplip1 (APPL-interacting protein 1) [DRSC07947], the entry reads phenotype seen, replicate 1 = axon bundles split apart.
Against Aplip1 (APPL-interacting protein 1) [DRSC08697], the entry reads phenotype seen, replicate 1 = sheet-like cell extensions.
For CG42568 + DnaJ-60 [DRSC04207] the deposit lists phenotype seen, replicate 1 = too many neurite branches.
For RpL21 (Ribosomal protein L21) [DRSC03704], the entry reads phenotype seen, replicate 1 = beaded; swollen axons.
Depletion of Tsp42Ec (Tetraspanin 42Ec) [DRSC06192] came out at: phenotype seen, replicate 1 = abnormal cell clusters.
After knock-down of Gos28 (Golgi SNARE, 28 kDa) [DRSC16292], the screen gave phenotype seen, replicate 1 = sheet-like cell extensions.
With knock-down of Uros2 (Uroporphyrinogen III synthase 2) [DRSC16505], the screen gave phenotype seen, replicate 1 = abnormal cell clusters.
With knock-down of hbn (homeobrain) [DRSC04238], the screen gave phenotype seen, replicate 1 = too many neurite branches.
Silencing of CG33308 [DRSC01419] resulted in: phenotype seen, replicate 1 = abnormal cell clusters.
For CAH3 (Carbonic anhydrase 3) [DRSC17776] the deposit lists phenotype seen, replicate 1 = axon bundles split apart.
Against mtd (mustard) [DRSC12380], the entry reads phenotype seen, replicate 1 = axon bundles split apart.
Against CG11269 [DRSC04094], the values are phenotype seen, replicate 1 = abnormal cell clusters.
Depletion of CG31141 [DRSC13646] resulted in: phenotype seen, replicate 1 = reduced axon outgrowth.
Depletion of Khc (Kinesin heavy chain) [DRSC07448] came out at: phenotype seen, replicate 1 = beaded; swollen axons.
After knock-down of Tm2 (Tropomyosin 2) [DRSC16887], the record shows phenotype seen, replicate 1 = axon bundles split apart.
Against Src42A (Src oncogene at 42A) [DRSC04915], the values are phenotype seen, replicate 1 = too many neurite branches.
Depletion of CG15756 [DRSC19721] resulted in: phenotype seen, replicate 1 = too many neurite branches.
Depletion of RpL24 (Ribosomal protein L24) [DRSC03185] resulted in: phenotype seen, replicate 1 = too many neurite branches.
Patsas [DRSC02975] showed phenotype seen, replicate 1 = cell fragments present.
For msd1 (mitotic spindle density 1) [DRSC08383], the entry reads phenotype seen, replicate 1 = axon bundles split apart.
After knock-down of MstProx + Mst84Da [DRSC12597], the record shows phenotype seen, replicate 1 = axon bundles split apart.
After knock-down of CG32432 [DRSC11703], the record shows phenotype seen, replicate 1 = fewer cells.
Against Eip63F-1 (Ecdysone-induced protein 63F 1) [DRSC08659], the entry reads phenotype seen, replicate 1 = too many neurite branches.
CG33341 [DRSC22887] gave phenotype seen, replicate 1 = beaded; swollen axons.
For CG34300 [DRSC13977] the deposit lists phenotype seen, replicate 1 = axon bundles split apart.

A few values from the list.
Result of CG31872 [DRSC02572] under “phenotype seen, replicate 1”: too many neurite branches
CAH3 (Carbonic anhydrase 3) [DRSC17776], phenotype seen, replicate 1 → axon bundles split apart
Under “phenotype seen, replicate 1”, Src42A (Src oncogene at 42A) [DRSC04915] reads too many neurite branches
Gos28 (Golgi SNARE, 28 kDa) [DRSC16292], phenotype seen, replicate 1 → sheet-like cell extensions
Value for CG31213 [DRSC15647] in “phenotype seen, replicate 1”: abnormal cell clusters
For “phenotype seen, replicate 1”, CG33308 [DRSC01419] reads abnormal cell clusters
